Experimental data from the supplement of paper PMC12067093, “Discovery and optimisation of a covalent ligand for TRIM25 and its application to targeted protein ubiquitination” (Chemical Science, 2025).
The list shows a part of the results.
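Further: competitive profiling in live THP-1 cells: cysteine peptides tagged with an iodoacetamide desthiobiotin (IA-DTB) probe, intensity after compound treatment relative to DMSO-treated cells.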

Amino acid sequences for entries named in this document (tags omitted). A change or cut given only in a name is not applied to a line headed by its entry.
UniProt Q96RQ3: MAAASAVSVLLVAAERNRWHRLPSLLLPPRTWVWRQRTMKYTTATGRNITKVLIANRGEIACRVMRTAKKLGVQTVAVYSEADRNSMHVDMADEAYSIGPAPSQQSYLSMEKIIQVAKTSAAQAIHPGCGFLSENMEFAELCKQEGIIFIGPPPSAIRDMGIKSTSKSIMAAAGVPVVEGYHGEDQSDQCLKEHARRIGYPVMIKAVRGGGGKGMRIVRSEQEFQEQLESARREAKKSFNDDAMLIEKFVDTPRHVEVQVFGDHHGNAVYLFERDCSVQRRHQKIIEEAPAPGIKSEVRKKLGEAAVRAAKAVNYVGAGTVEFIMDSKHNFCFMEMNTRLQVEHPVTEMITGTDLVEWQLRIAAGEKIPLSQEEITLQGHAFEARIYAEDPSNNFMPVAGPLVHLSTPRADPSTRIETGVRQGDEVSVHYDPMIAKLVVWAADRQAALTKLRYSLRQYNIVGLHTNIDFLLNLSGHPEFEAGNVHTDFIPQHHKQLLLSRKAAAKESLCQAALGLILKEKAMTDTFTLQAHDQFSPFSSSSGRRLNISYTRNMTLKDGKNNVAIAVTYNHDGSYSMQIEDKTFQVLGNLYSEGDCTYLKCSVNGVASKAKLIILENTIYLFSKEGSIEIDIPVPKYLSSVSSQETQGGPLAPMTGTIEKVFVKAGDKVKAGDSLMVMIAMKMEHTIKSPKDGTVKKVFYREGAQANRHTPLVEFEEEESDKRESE
UniProt O60449: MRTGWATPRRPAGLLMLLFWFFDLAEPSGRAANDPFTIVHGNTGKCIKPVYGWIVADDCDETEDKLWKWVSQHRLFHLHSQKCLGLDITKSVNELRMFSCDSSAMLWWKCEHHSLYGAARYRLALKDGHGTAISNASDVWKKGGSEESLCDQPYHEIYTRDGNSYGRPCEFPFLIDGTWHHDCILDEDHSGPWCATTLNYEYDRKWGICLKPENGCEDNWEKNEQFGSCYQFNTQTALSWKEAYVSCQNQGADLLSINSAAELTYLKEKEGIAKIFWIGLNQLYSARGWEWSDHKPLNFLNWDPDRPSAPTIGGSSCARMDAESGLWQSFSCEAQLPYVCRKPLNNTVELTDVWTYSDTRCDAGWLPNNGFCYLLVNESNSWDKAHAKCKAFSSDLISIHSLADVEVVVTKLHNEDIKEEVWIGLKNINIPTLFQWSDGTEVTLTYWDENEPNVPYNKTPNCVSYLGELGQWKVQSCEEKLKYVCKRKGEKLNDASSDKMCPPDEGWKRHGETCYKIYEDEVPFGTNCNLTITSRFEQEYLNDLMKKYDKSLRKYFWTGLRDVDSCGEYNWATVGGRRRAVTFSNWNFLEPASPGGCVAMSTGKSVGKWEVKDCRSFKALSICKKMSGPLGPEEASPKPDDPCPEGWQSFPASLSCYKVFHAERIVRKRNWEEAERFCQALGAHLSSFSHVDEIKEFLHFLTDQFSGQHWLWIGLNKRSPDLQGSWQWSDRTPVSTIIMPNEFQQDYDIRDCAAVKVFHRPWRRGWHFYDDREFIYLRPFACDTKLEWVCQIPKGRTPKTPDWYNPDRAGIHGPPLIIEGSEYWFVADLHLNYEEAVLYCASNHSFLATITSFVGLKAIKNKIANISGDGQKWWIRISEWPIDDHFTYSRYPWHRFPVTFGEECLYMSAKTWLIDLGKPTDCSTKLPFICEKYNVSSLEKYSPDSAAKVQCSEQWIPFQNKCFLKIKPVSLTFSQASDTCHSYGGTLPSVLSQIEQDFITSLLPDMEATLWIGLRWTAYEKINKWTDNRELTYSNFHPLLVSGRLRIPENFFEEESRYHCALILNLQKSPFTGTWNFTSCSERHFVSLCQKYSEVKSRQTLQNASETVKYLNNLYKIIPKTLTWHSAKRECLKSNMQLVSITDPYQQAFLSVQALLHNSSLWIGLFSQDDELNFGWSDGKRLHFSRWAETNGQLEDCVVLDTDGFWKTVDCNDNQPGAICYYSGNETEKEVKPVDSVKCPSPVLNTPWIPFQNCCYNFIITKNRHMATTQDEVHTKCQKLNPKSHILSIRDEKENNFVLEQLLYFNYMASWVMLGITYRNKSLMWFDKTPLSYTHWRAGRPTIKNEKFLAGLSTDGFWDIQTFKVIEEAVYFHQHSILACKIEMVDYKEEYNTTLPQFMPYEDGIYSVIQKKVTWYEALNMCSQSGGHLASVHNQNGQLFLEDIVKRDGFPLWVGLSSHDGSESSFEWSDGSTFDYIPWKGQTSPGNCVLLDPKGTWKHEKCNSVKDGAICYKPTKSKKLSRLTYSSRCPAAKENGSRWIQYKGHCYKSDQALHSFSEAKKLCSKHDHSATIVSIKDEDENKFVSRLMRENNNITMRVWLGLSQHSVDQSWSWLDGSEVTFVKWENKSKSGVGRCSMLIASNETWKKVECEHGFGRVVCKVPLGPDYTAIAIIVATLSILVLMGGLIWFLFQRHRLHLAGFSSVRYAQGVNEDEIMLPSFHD
UniProt P28482, whole entry, looked up: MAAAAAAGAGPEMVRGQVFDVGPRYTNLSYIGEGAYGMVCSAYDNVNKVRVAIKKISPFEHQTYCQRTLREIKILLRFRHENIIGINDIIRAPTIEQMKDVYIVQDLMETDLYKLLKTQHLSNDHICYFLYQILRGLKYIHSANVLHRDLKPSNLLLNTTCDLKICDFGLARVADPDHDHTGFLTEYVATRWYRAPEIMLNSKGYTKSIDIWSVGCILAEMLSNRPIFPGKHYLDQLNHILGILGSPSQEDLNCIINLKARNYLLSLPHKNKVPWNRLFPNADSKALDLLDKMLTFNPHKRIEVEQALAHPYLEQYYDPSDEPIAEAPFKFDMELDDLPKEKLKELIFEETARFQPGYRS
UniProt O00754: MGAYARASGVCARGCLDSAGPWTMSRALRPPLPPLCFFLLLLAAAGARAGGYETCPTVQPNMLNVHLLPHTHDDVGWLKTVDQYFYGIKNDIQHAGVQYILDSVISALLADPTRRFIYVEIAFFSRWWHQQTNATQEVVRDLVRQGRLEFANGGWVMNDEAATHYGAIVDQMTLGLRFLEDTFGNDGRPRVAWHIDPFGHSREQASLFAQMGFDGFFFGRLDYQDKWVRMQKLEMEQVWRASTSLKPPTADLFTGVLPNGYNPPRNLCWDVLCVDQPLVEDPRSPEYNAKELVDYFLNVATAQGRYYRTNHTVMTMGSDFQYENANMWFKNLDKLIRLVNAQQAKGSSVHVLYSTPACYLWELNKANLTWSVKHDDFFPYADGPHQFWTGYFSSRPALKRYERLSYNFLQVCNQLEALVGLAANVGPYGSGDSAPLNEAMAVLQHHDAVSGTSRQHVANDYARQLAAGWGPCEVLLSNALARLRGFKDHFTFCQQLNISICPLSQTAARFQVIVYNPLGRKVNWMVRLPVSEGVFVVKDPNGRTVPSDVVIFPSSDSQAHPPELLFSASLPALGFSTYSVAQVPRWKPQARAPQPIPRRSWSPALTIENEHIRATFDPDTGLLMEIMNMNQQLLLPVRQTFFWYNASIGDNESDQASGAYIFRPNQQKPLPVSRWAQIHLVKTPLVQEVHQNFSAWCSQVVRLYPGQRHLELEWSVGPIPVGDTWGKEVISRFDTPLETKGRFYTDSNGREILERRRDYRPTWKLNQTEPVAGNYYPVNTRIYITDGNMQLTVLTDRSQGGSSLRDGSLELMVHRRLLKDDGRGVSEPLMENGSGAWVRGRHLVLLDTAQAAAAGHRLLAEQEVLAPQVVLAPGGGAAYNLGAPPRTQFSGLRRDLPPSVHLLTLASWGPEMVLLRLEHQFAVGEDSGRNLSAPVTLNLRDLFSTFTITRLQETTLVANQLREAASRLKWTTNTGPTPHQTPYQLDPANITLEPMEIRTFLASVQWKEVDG
UniProt O95819: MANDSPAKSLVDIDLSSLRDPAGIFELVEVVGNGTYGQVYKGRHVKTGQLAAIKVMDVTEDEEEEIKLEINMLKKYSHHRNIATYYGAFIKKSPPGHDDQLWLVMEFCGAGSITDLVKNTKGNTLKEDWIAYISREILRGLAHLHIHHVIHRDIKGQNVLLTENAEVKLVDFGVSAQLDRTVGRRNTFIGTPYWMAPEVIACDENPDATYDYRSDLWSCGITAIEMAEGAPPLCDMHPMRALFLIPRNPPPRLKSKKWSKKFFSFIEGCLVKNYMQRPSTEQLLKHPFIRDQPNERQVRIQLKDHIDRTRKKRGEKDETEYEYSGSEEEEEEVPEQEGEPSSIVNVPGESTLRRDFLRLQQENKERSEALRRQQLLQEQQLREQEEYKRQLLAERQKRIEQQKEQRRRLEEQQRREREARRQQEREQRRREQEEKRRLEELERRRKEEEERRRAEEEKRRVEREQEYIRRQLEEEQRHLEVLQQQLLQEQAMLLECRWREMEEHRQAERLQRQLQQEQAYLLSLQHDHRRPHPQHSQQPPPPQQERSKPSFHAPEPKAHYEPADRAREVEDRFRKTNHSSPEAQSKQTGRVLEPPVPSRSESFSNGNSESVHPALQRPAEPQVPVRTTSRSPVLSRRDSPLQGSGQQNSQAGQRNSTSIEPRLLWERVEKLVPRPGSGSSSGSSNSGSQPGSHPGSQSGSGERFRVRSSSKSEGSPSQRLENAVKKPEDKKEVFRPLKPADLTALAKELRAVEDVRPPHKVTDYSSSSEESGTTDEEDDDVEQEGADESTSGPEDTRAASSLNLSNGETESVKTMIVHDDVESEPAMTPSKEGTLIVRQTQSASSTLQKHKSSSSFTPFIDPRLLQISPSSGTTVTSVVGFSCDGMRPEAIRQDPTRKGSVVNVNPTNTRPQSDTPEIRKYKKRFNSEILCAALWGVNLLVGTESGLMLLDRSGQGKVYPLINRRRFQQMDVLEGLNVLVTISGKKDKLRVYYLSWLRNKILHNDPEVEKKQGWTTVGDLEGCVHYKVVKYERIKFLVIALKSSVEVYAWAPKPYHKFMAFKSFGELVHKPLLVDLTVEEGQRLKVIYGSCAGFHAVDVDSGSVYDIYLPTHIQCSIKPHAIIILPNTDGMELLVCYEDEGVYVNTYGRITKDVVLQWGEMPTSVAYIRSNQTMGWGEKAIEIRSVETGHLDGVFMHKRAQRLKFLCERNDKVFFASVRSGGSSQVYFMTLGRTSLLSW
UniProt Q9Y2E5: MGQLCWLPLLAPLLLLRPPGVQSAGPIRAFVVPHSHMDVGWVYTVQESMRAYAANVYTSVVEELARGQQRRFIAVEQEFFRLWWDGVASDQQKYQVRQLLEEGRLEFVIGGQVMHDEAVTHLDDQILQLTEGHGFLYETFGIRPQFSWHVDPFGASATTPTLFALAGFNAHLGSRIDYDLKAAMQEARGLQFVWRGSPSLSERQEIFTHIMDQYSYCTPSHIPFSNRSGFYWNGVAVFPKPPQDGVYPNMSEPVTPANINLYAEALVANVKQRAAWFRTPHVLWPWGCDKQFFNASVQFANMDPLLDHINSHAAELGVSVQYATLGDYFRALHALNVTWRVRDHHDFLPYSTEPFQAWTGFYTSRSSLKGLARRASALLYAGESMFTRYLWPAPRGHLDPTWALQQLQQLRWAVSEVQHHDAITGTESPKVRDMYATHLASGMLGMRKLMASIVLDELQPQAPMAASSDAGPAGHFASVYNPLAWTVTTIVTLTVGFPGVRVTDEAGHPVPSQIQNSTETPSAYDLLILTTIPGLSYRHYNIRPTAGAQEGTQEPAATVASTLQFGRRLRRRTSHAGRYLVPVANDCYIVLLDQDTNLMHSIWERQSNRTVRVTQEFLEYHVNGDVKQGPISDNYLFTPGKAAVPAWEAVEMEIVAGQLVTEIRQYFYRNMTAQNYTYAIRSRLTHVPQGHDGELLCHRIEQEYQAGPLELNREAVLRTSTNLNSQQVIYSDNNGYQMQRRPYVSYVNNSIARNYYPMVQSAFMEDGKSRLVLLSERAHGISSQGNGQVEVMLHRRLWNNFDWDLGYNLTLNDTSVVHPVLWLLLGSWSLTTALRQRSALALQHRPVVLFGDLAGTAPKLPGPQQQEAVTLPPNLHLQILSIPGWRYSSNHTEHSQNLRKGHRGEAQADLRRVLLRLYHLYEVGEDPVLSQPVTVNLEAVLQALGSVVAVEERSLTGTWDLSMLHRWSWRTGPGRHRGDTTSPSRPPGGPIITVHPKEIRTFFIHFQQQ

What follows are targets tested with Cc1cc(ccc1-c1ccccc1)C(=O)N1CCCN(CC1)C(=O)CCl [compound 10] (assay: probe-labelled cysteine peptide fold change vs DMSO (competition) (log2 fold change); higher = less target engagement (more negative = stronger competition)). Details: 10 µM; THP-1; incubation time: 4 h.
In the case of “MCCC2_Q9HCC0_131_VSGVECMIIANDATVK (UniProt Q9HCC0)”, the “probe-labelled cysteine peptide fold change” value is reported as 0.247. “MAP2K4_P45985_246_LCDFGISGQLVDSIAK (UniProt P45985)” was tested, and the “probe-labelled cysteine peptide fold change” value was -0.0625. With “MAP2K2_P36507_384_RSEVEEVDFAGWLCK (UniProt P36507)” the “probe-labelled cysteine peptide fold change” value was -0.16. With “LYAR_Q9NX58_9_VFFTCNACGESVK (UniProt Q9NX58)” the “probe-labelled cysteine peptide fold change” value was 0.115. In the case of “MCCC1_Q96RQ3_190_SIMAAAGVPVVEGYHGEDQSDQCLK (UniProt Q96RQ3)”, the “probe-labelled cysteine peptide fold change” value is reported as -0.0351. In the case of “MASTL_Q96GX5_614_ESSFEESNIEDPLIVTPDCQEK (UniProt Q96GX5)”, the “probe-labelled cysteine peptide fold change” value is reported as 0.0778. In the case of “LY75_O60449_1089_HFVSLCQK (UniProt O60449)”, the “probe-labelled cysteine peptide fold change” value is reported as 0.00146. With “MAPK1_P28482_127_TQHLSNDHICYFLYQILR (UniProt P28482)” the “probe-labelled cysteine peptide fold change” value was 0.145. “LY75_O60449-2_1697_NQCTDHGADMISIHNEEENAFILDTLK (UniProt O60449)” was tested, and the “probe-labelled cysteine peptide fold change” value was -0.0829. For “MAN2B1_O00754_268+273_NLCWDVLCVDQPLVEDPR (UniProt O00754)”, the “probe-labelled cysteine peptide fold change” value was -0.169. In the case of “MAP2K2_P36507_384_SEVEEVDFAGWLCK (UniProt P36507)”, the “probe-labelled cysteine peptide fold change” value is reported as 0.0856. For “MAP4K4_O95819_496_HLEVLQQQLLQEQAMLLECR (UniProt O95819)”, the “probe-labelled cysteine peptide fold change” value was 0.273. In the case of “MAP4K1_Q92918_428_CASGPPPNSPR (UniProt Q92918)”, the “probe-labelled cysteine peptide fold change” value is reported as -0.175. “MAN2B2_Q9Y2E5_288_TPHVLWPWGCDK (UniProt Q9Y2E5)” was tested, and the “probe-labelled cysteine peptide fold change” value was 0.102. In the case of “MCCC1_Q96RQ3_332_HNFCFMEMNTR (UniProt Q96RQ3)”, the “probe-labelled cysteine peptide fold change” value is reported as -0.0362. “MARK3_P27448_46_NSIASCADEQPHIGNYR (UniProt P27448)” was tested, and the “probe-labelled cysteine peptide fold change” value was -0.297.
